Results taken from article PMC7862700.
The entries are a selection whose mix differs from that of the whole data set. At the low end of the ranking the order means little.

Chains of the proteins cited; added tags and fusions are not shown. Lines headed by an entry give the natural chain unless they say otherwise; changes in a name come on top.
UniProt Q01892: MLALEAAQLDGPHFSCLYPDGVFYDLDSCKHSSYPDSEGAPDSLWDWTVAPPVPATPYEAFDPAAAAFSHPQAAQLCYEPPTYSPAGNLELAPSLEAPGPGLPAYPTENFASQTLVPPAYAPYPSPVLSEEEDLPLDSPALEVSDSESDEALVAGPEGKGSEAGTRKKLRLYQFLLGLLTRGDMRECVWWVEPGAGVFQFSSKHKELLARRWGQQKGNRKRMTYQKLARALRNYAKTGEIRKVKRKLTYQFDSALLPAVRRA

Each sequence was assayed against T1, EHF (UniProt Q9NZC4) (assay: DAPPL (digital affinity profiling via proximity ligation, sequencing)). Conditions: 10 mM Tris-HCl pH 7.5, 50 mM NaCl, 1 mM DTT, 4% glycerol, room temperature, 30 min; GST-TFs on glutathione beads, 16-mer random dsDNA library, 0.1% …; high values mean tight binding; double strand, one strand shown; scale: fold enrichment (6-mer frequency, TF over GST control).
T1 sequence: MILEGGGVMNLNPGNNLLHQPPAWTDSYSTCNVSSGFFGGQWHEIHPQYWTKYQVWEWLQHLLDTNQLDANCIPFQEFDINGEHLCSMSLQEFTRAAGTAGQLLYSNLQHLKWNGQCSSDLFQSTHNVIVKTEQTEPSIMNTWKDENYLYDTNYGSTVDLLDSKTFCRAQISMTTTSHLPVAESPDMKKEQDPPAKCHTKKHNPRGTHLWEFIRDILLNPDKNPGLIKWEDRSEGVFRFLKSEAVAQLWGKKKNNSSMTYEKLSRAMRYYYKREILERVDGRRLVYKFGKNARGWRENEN
CCTCTA was tested, and the binding signal was 1.31.
TCCCTC showed a binding signal of 1.48.
AGTATC gave a binding signal of 1.19.
TCTTAC gave a binding signal of 1.2.
With AGCTAC the binding signal was 1.22.
With CTACGA the binding signal was 1.25.
Work on GGAACA yielded a binding signal of 1.12.
AGGTAT gave a binding signal of 0.978.
CCGAAG gave a binding signal of 1.03.
TCCGGC was tested, and the binding signal was 2.18.
TGAACC showed a binding signal of 1.16.
Sequence TCTCAA has a binding signal of 1.19.
TCATTT was tested, and the binding signal was 1.36.
TTACCG was tested, and the binding signal was 1.24.
GCTTGC was tested, and the binding signal was 1.28.
For TAACGA, the binding signal was 0.994.
GCACCC showed a binding signal of 1.01.
CAATTG gave a binding signal of 1.27.
Work on CTGAAT yielded a binding signal of 1.31.
TTGATT gave a binding signal of 1.26.
For ACTTCC, the binding signal was 8.81.
ACTTAC showed a binding signal of 1.28.
For GACCTT, the binding signal was 1.46.
In the case of ATTGCC, the binding signal was 1.24.
With ACGTTC the binding signal was 1.3.
GCTGAA gave a binding signal of 1.1.
With TTAACG the binding signal was 1.15.
AACTAA showed a binding signal of 1.42.
GAACAC was tested, and the binding signal was 1.12.
In the case of AAACGG, the binding signal was 1.26.
For CCCACA, the binding signal was 1.12.
Sequence TGCGCG has a binding signal of 1.16.

These sequences were tested against SPIB (UniProt Q01892) in the same assay as above. Conditions: 10 mM Tris-HCl pH 7.5, 50 mM NaCl, 1 mM DTT, 4% glycerol, room temperature, 30 min; GST-TFs on glutathione beads, 16-mer random dsDNA library, 0.1% …; high values mean tight binding; double strand, one strand shown; scale: fold enrichment (6-mer frequency, TF over GST control).
Work on TAAAGT yielded a binding signal of 1.11.
GGAATT was tested, and the binding signal was 1.18.
With CTTAGG the binding signal was 1.08.
GCCTCC was tested, and the binding signal was 1.29.
For AACGTA, the binding signal was 0.953.
Sequence CTGCGA has a binding signal of 1.45.

What follows are sequences tested against T2, ETV3L (UniProt Q6ZN32) in the same assay as above. Conditions: 10 mM Tris-HCl pH 7.5, 50 mM NaCl, 1 mM DTT, 4% glycerol, room temperature, 30 min; GST-TFs on glutathione beads, 16-mer random dsDNA library, 0.1% …; high values mean tight binding; double strand, one strand shown; scale: fold enrichment (6-mer frequency, TF over GST control).
T2 sequence: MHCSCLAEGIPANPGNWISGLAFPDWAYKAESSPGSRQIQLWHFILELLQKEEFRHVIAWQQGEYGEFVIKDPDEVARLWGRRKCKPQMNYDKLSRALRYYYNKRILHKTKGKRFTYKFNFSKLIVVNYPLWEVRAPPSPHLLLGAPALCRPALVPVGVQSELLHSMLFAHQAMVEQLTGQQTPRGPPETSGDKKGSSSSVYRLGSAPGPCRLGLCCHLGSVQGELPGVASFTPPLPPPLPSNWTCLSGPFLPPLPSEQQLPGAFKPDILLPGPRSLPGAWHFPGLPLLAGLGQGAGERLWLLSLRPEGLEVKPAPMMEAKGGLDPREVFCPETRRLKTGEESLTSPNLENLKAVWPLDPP
Work on TAAAGT yielded a binding signal of 1.29.
GGAATT gave a binding signal of 0.982.
CTTAGG showed a binding signal of 1.01.
Sequence GCCTCC has a binding signal of 1.27.
AACGTA showed a binding signal of 0.975.
For CTGCGA, the binding signal was 1.4.
